Assay results published in the supplement of paper PMC8728848.
Some of the results follow.

Assays:
Test in all cases: glycan array binding signal (z-score within array); higher = stronger binding
Details in all cases: glycan notation: IUPAC condensed, linker removed
[1] = target: GlcNAc(b1-3)Gal(b1-4)GlcNAc(b1-3)Gal(b1-4)GlcNAc(b1-3)GalNAc
Outline: (§1)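 Glycan array data were curated from 3228 arrays in the Consortium for Functional Glycomics database and kept only where the protein sequence was available. Glycan names were converted to IUPAC-condensed notation, and columns mapping to the same glycan were averaged. The binding signal is a within-array Z-score, averaged across arrays of the same protein sequence at different concentrations or buffers and across linkers. Negative Z-scores can be read as non-binding.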

[2] = target: GlcNAc(b1-3)Gal(b1-4)GlcNAc(b1-3)GalNAc
Outline: as §1

[3] = target: GlcNAc(b1-3)Gal(b1-4)GlcNAc(b1-3)[GlcNAc(b1-3)Gal(b1-4)GlcNAc(b1-3)]GalNAc
Outline: as §1

[4] = target: GlcNAc(b1-3)Gal(b1-4)GlcNAc(b1-6)[Gal(b1-3)]GalNAc
Outline: as §1

[5] = target: GlcNAc(b1-3)Gal(b1-4)GlcNAc(b1-6)[GlcNAc(b1-3)Gal(b1-3)]GalNAc
Outline: as §1

[6] = target: GlcNAc(b1-3)Gal(b1-4)GlcNAc(b1-6)[GlcNAc(b1-3)]Gal(b1-4)GlcNAc
Outline: as §1

[7] = target: GlcNAc(b1-3)GalNAc
Outline: as §1

[8] = target: GlcNAc(b1-3)Man
Outline: as §1

[9] = target: GlcNAc(b1-3)[GlcNAc(b1-4)][GlcNAc(b1-6)]GlcNAc
Outline: as §1

[10] = target: GlcNAc(b1-3)[GlcNAc(b1-6)]Gal(b1-4)GlcNAc
Outline: as §1

[11] = target: GlcNAc(b1-3)[GlcNAc(b1-6)]GalNAc
Outline: as §1

[12] = target: GlcNAc(b1-4)Gal(b1-4)GlcNAc
Outline: as §1

[13] = target: GlcNAc(b1-4)GlcNAc
Outline: as §1

[14] = target: GlcNAc(b1-4)GlcNAc(b1-4)GlcNAc
Outline: as §1

[15] = target: GlcNAc(b1-4)GlcNAc(b1-4)GlcNAc(b1-4)GlcNAc(b1-4)GlcNAc
Outline: as §1

[16] = target: GlcNAc(b1-4)GlcNAc(b1-4)GlcNAc(b1-4)GlcNAc(b1-4)GlcNAc(b1-4)GlcNAc
Outline: as §1

[17] = target: GlcNAc(b1-4)[GlcNAc(b1-6)]GalNAc
Outline: as §1

[18] = target: GlcNAc(b1-6)Gal(b1-4)GlcNAc
Outline: as §1

[19] = target: GlcNAc(b1-6)GalNAc
Outline: as §1

[20] = target: GlcNAc6S(b1-3)Gal(b1-4)GlcNAc
Outline: as §1

[21] = target: Kdn(a2-3)Gal(b1-3)GalNAc
Outline: as §1

[22] = target: Kdn(a2-3)Gal(b1-3)GlcNAc
Outline: as §1

[23] = target: Kdn(a2-3)Gal(b1-4)Glc
Outline: as §1

[24] = target: Kdn(a2-3)Gal(b1-4)GlcNAc
Outline: as §1

[25] = target: Kdn(a2-3)Gal(b1-4)[Fuc(a1-3)]GlcNAc
Outline: as §1

[26] = target: Kdn(a2-6)Gal(b1-4)GlcNAc
Outline: as §1

[27] = target: Man(a1-2)Man(a1-2)Man(a1-3)Man
Outline: as §1

[28] = target: Man(a1-2)Man(a1-2)Man(a1-6)[Man(a1-3)]Man
Outline: as §1

[29] = target: Man(a1-2)Man(a1-3)Man
Outline: as §1

[30] = target: Man(a1-2)Man(a1-3)[Man(a1-2)Man(a1-6)]Man
Outline: as §1

[31] = target: Man(a1-2)Man(a1-3)[Man(a1-2)Man(a1-6)]Man(a1-6)[Man(a1-2)Man(a1-2)Man(a1-3)]Man
Outline: as §1

[32] = target: Man(a1-2)Man(a1-3)[Man(a1-2)Man(a1-6)]Man(a1-6)[Man(a1-2)Man(a1-2)Man(a1-3)]Man(b1-4)GlcNAc(b1-4)GlcNAc
Outline: as §1

[33] = target: Man(a1-2)Man(a1-3)[Man(a1-6)]Man(a1-6)[Man(a1-2)Man(a1-3)]Man(b1-4)GlcNAc(b1-4)GlcNAc
Outline: as §1

[34] = target: Man(a1-2)Man(a1-6)[Man(a1-3)]Man(a1-6)[Man(a1-2)Man(a1-2)Man(a1-3)]Man
Outline: as §1

[35] = target: Man(a1-2)Man(a1-6)[Man(a1-3)]Man(a1-6)[Man(a1-2)Man(a1-2)Man(a1-3)]Man(b1-4)GlcNAc(b1-4)GlcNAc
Outline: as §1

[36] = target: Man(a1-3)[Man(a1-6)]Man
Outline: as §1

[37] = target: Man(a1-3)[Man(a1-6)]Man(a1-6)[Man(a1-2)Man(a1-3)]Man(b1-4)GlcNAc(b1-4)GlcNAc
Outline: as §1

[38] = target: Man(a1-3)[Man(a1-6)]Man(a1-6)[Man(a1-3)]Man
Outline: as §1

[39] = target: Man(a1-3)[Man(a1-6)]Man(a1-6)[Man(a1-3)]Man(b1-4)GlcNAc(b1-4)GlcNAc
Outline: as §1

[40] = target: Man(a1-3)[Man(a1-6)]Man(b1-4)GlcNAc(b1-4)GlcNAc
Outline: as §1

[41] = target: Man(a1-3)[Man(a1-6)]Man(b1-4)GlcNAc(b1-4)[Fuc(a1-6)]GlcNAc
Outline: as §1

[42] = target: Man(a1-6)Man
Outline: as §1

[43] = target: Man(b1-4)GlcNAc
Outline: as §1

[44] = target: MurNAc(b1-4)GlcNAc
Outline: as §1

[45] = target: Neu5Ac(a2-3)Gal
Outline: as §1

B1: Pwp1 (Candida glabrata) (protein)
chain: MGSSHHHHHHSSGLVPRGSHMASANPISITNVCQFPDNWARTAGFQATTVRLGLTIASNTYKELLNYPGLFNFATQKATVTQPNFSISGFPFFTGLYGLTVWPINLLVELQGYFVPPESGNYTFTLQGSDDAAILFFANPSTFACGSQNDWPQPREADITVTDTLVPSRTLYLVKGVAYPIRIAYYNGSGDGKLNVSFKDPSGTTHTDWKGYVWQYSNTCSTCTYT
- glycan array binding signal (z-score) [1]: -1.29
- glycan array binding signal (z-score) [2]: 1.13
- glycan array binding signal (z-score) [3]: -0.127
- glycan array binding signal (z-score) [4]: -0.991
- glycan array binding signal (z-score) [5]: -0.722
- glycan array binding signal (z-score) [6]: 0.31
- glycan array binding signal (z-score) [7]: -0.477
- glycan array binding signal (z-score) [8]: -0.016
- glycan array binding signal (z-score) [9]: 1.27
- glycan array binding signal (z-score) [10]: -0.622
- glycan array binding signal (z-score) [11]: 0.051
- glycan array binding signal (z-score) [12]: -2.23
- glycan array binding signal (z-score) [13]: 0.559
- glycan array binding signal (z-score) [14]: 0.075
- glycan array binding signal (z-score) [15]: -1.03
- glycan array binding signal (z-score) [16]: -1.01
- glycan array binding signal (z-score) [17]: -0.159
- glycan array binding signal (z-score) [18]: -0.029
- glycan array binding signal (z-score) [19]: 0.644
- glycan array binding signal (z-score) [20]: -0.576
- glycan array binding signal (z-score) [21]: -2.05
- glycan array binding signal (z-score) [22]: 0.17
- glycan array binding signal (z-score) [23]: -1.05
- glycan array binding signal (z-score) [24]: -1.18
- glycan array binding signal (z-score) [25]: 0.445
- glycan array binding signal (z-score) [26]: 1.67
- glycan array binding signal (z-score) [27]: 0.737
- glycan array binding signal (z-score) [28]: 0.183
- glycan array binding signal (z-score) [29]: 0.697
- glycan array binding signal (z-score) [30]: 0.819
- glycan array binding signal (z-score) [31]: 0.145
- glycan array binding signal (z-score) [32]: 0.286
- glycan array binding signal (z-score) [33]: 0.458
- glycan array binding signal (z-score) [34]: 0.431
- glycan array binding signal (z-score) [35]: -1.22
- glycan array binding signal (z-score) [36]: -1.51
- glycan array binding signal (z-score) [37]: 1.55
- glycan array binding signal (z-score) [38]: -0.487
- glycan array binding signal (z-score) [39]: -1.33
- glycan array binding signal (z-score) [40]: 0.507
- glycan array binding signal (z-score) [41]: 0.981
- glycan array binding signal (z-score) [42]: -1.48
- glycan array binding signal (z-score) [43]: -1.21
- glycan array binding signal (z-score) [44]: -1.73
- glycan array binding signal (z-score) [45]: 0.738
